From patent publication US20080300231A1 (priority 2005, published 2008) come the findings set out here.

This series in a line: general procedure: solution-phase peptide synthesis; PyBOP, N,N-diisopropylethylamine.

Regarding “1-{[(8S,11S,14S)-14-Amino-11-(3-aminopropyl)-5,17-dihydroxy-10,13-dioxo-9,12-diazatricyclo[14.3.1.1^2,6]henicosa-1(20),2(21),3,5,16,18-hexaen-8-yl]carbonyl}-L-prolyl-N-(2-aminoethyl)-L-ornithinamide tetrahydrochloride”, for the setting “late stage modification step, tetrahydrochloride”, the step yield was 96% of theory.
Turning to “1-{[(8S,11S,14S)-14-[(tert-Butoxycarbonyl)amino]-11-{3-[(tert-butoxycarbonyl)amino]-propyl}-5,17-dihydroxy-10,13-dioxo-9,12-diazatricyclo[14.3.1.1^2,6]henicosa-1(20), 2(21),3,5,16,18-hexaen-8-yl]carbonyl}-L-prolyl-N^5-(tert-butoxycarbonyl)-N-{2-[(tert-butoxycarbonyl)amino]ethyl}-L-ornithinamide”, the step yield (coupling step, hydrochloride) is recorded as 66% of theory.
